Primary screen of a compound library

Chains of the proteins cited; added tags and fusions are not shown. Residues count along the entry.
UniProt P9WPC5, whole entry: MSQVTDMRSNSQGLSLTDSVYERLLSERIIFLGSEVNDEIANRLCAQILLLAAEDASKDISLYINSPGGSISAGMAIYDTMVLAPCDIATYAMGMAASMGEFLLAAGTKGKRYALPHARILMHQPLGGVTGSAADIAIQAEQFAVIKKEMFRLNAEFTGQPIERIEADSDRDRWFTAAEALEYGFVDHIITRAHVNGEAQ
UniProt P9WPC3, whole entry partner: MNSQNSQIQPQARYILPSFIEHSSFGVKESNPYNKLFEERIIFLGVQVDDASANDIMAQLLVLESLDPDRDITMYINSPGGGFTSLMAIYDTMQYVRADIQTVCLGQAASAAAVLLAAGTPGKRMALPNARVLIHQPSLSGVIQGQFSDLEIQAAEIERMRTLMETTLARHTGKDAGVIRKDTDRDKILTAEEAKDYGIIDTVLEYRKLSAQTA
UniProt Q8IDJ8, 1-583: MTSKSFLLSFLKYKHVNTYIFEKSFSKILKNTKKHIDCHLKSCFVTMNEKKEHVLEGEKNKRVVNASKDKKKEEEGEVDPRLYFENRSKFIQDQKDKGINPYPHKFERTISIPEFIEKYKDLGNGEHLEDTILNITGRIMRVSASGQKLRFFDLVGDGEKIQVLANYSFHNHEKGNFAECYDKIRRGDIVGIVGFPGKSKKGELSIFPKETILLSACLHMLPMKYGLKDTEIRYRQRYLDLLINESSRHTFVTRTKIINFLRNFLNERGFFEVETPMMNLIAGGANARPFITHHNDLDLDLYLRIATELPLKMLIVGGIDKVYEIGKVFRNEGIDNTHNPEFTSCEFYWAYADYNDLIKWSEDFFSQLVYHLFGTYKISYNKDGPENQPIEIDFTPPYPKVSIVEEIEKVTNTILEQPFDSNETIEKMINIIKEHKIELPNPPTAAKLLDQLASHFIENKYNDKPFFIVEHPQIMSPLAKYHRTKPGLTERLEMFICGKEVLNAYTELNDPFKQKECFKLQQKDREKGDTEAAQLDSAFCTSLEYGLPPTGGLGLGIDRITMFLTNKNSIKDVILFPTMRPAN
UniProt P9WFT3, whole entry: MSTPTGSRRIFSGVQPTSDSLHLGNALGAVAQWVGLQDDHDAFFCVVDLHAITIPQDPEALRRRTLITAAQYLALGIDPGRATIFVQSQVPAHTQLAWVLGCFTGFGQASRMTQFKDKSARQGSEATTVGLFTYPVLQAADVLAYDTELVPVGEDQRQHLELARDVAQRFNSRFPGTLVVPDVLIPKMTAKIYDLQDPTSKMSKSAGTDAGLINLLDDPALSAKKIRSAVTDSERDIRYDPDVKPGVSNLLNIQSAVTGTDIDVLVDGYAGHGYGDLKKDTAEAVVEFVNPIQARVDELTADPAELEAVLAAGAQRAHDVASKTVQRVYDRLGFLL
UniProt A4I591, 1-473: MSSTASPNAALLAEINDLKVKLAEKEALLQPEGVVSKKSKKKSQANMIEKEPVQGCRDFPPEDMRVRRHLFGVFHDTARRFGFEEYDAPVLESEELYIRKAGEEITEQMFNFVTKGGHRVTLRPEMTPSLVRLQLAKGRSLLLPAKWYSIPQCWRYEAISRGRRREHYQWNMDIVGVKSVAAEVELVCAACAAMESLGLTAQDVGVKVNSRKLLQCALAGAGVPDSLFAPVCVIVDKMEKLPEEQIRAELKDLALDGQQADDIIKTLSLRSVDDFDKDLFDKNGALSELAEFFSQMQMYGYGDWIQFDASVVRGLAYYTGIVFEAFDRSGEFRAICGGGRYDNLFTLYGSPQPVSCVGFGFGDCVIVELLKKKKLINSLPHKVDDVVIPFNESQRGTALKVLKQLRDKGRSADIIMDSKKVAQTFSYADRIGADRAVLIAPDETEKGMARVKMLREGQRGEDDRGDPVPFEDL
UniProt Q4DA54, 1-478: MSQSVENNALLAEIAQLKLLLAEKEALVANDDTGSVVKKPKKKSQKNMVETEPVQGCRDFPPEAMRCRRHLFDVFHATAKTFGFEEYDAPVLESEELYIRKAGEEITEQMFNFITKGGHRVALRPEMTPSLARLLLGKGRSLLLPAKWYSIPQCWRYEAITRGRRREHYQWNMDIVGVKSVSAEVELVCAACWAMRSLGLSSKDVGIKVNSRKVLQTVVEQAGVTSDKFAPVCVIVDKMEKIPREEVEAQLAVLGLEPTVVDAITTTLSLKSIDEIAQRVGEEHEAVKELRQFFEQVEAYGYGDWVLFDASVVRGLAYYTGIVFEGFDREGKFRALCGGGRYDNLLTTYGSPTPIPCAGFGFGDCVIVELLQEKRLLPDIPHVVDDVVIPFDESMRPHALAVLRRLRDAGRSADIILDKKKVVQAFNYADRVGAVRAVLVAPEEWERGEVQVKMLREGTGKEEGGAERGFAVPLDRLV

The filed quantity is “Percent Effect” (%).
The record does not define 0% and 100%; most values in the screen are far below 50% and negative numbers occur (in some assays of this library far below -100).
The compounds are a random part of those screened.
Two or more numbers in one place are separate tests of the same structure; such repeats can differ widely.
A dash means the value is not listed here; it may have been measured.

ClpP1P2: 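ClpP1P2, Mycobacterium tuberculosis (UniProt P9WPC5 and UniProt P9WPC3). Protease assay of ClpP1P2, read by the AMC dye that it sets free. Compounds at 50 µM. Higher reads as stronger inhibition, judged from the few compounds that gave an IC50. Most other retested compounds had strongly negative values. Size under these conditions: about 69,000 compounds, about 10 of them at 50% or above in at least one test.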
PfKRS1: 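Lysine-tRNA ligase, Plasmodium falciparum 3D7 (UniProt Q8IDJ8). Enzyme assay of the cytosolic lysyl-tRNA synthetase in 384-well plates, read by luminescence. Tested at 30 µM. Direction is inferred from only a few compounds that gave an IC50; most scored high, so higher reads as stronger inhibition. Size under these conditions: about 69,000 compounds, about 49 of them at 50% or above in at least one test.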
MtTrpRS: 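Tryptophan-tRNA ligase, Mycobacterium tuberculosis (UniProt P9WFT3). Enzyme assay of tryptophanyl-tRNA synthetase; the read-out is not stated. Compounds at 10 µM. Direction is not recorded; retested compounds ran higher, which suggests that high means inhibition. Size under these conditions: about 65,000 compounds, about 64 of them at 50% or above in at least one test.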
LiHisRS: 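Enzyme assay of histidyl-tRNA synthetase; the read-out is not stated. Target: Histidine-tRNA ligase, Leishmania infantum (UniProt A4I591). Tested at 30 µM. Direction is inferred from retests: higher values go with stronger inhibition. The assay is labelled LdHisRS but filed under L. infantum. Of about 69,000 compounds tested this way, about 410 (0.6%) reached 50% or more in at least one test.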
TcHisRS: 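Enzyme assay of histidyl-tRNA synthetase; the read-out is not stated. Target: Histidine-tRNA ligase, Trypanosoma cruzi CL Brener (UniProt Q4DA54). Compounds at 30 µM. Direction is inferred from retests: higher values go with stronger inhibition. Of about 69,000 compounds tested this way, about 31 (0.045%) reached 50% or more in at least one test.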
Leishmania in macrophages: 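Cell assay of Leishmania donovani living inside macrophages; the read-out is not stated. Compounds at 30 µM. The record gives no direction; compounds that gave an IC50 in retests scored well above the rest, so higher reads as stronger inhibition. About 69,000 compounds were tested under these conditions; 1.5% (about 1,000) showed 50% or more at least once.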

- CNC(=O)C1(c2cnccn2)CCCN1C(=O)c1ccc(F)cc1 (centres unmarked) | ClpP1P2: 12.68%; PfKRS1: -0.605%; LiHisRS: 17.71%; TcHisRS: 11.7%; Leishmania in macrophages: 12.6%
- O=C(N[C@@H]1CN(c2ncccn2)[C@@H]2CCCO[C@@H]21)c1cnccn1 | ClpP1P2: -3.066%; PfKRS1: 0.1424%; MtTrpRS: 4.932%; LiHisRS: 18.87%; TcHisRS: 0.5405%
- Cc1nsc(NC2CCN(c3ccccc3OC(F)F)C2=O)n1 (centres unmarked) | ClpP1P2: -5.596%; PfKRS1: 4.818%; MtTrpRS: 11%; LiHisRS: 7.563%; TcHisRS: 0%; Leishmania in macrophages: -12.24%
- CN(C)Cc1cc(C2CCN(C(=O)C3CC34CCC4)CC2)nn1C (centres unmarked) | ClpP1P2: -29.5%; PfKRS1: 1.06%; MtTrpRS: -5.405%; LiHisRS: 5.369%; TcHisRS: 2.571%
- CS(=O)(=O)NC1CCCN(Cc2ccccn2)C1 (centres unmarked) | ClpP1P2: 0.9654%; PfKRS1: 6.669%; MtTrpRS: 4.408%; LiHisRS: 14.52%; TcHisRS: 8.442%; Leishmania in macrophages: -10.23%
- COC(=O)c1ccc(CNC2CC(=O)N(Cc3cccc(F)c3)C2)cc1 (centres unmarked) | ClpP1P2: -21.94%; PfKRS1: -2.594%; MtTrpRS: -2.968%; LiHisRS: 5.66%; TcHisRS: -0.8333%; Leishmania in macrophages: -14.8%
- CC(C)[C@@H]1CN(C(=O)c2ccc3c(c2)CCCO3)C[C@H]1NS(C)(=O)=O | ClpP1P2: -7.893%; PfKRS1: -0.2851%; MtTrpRS: 3.995%; LiHisRS: 6.25%; TcHisRS: 5.063%; Leishmania in macrophages: -2.233%
- O=C(CC1CC1)NCc1cn2c(n1)CN(C(=O)c1cccnc1)CC2 | ClpP1P2: -4.772%; PfKRS1: -1.728%; MtTrpRS: -1.057%; LiHisRS: 8.029%; TcHisRS: 3.825%; Leishmania in macrophages: -7.695%
- [H][C@@]12CN(C(=O)CCOC)C[C@]1([H])C(=O)N(Cc1cccc(C)c1)C2 | Leishmania in macrophages: 8.438%
- Cn1ccnc1CN1CC[C@H]2CO[C@H](CNc3ncccn3)[C@H]2C1 | ClpP1P2: -19.9%; PfKRS1: 1.675%; MtTrpRS: -3.457%; LiHisRS: 12.5%; TcHisRS: 3.81%
- CSCCC1c2nc[nH]c2CCN1Cc1[nH]c2ccc(F)cc2c1C (centres unmarked) | ClpP1P2: -7.066%; PfKRS1: 1.293%; MtTrpRS: 8.061%; LiHisRS: 22.22%; TcHisRS: 21.21%; Leishmania in macrophages: 6.336%
- Cc1cccn2cc(CN3CCCC(O)C3)nc12 (centres unmarked) | ClpP1P2: 2.104%; PfKRS1: 0.5423%; MtTrpRS: -6.295%; LiHisRS: 22.86%; TcHisRS: 7.792%; Leishmania in macrophages: 10.98%
- O=C(c1cccs1)N1CCCC(c2cc(C(F)F)n3ncnc3n2)C1 (centres unmarked) | ClpP1P2: -9.621%; PfKRS1: 2.156%; LiHisRS: 5.208%; TcHisRS: 2.128%; Leishmania in macrophages: 1.532%
- CC(=O)N1CCC(Cc2cnc(Nc3cc(C)on3)cn2)CC1 | ClpP1P2: 3.891%; PfKRS1: 1.932%; MtTrpRS: -0.7473%; LiHisRS: 14.08%; TcHisRS: 7.692%; Leishmania in macrophages: 30.19%
- CCc1nnsc1C(=O)N1CCCC(n2nc(C)nc2C)C1 (centres unmarked) | ClpP1P2: -23.87%; PfKRS1: -0.2802%; MtTrpRS: -3.744%; LiHisRS: -3.67%; TcHisRS: 3.529%; Leishmania in macrophages: -0.8792%
- CN(C)C(=O)[C@@H]1C[C@@H]2[C@@H](CCN2Cc2nccs2)O1 | ClpP1P2: 13.45%; PfKRS1: 6.163%; MtTrpRS: -3.151%; LiHisRS: 17.43%; TcHisRS: 2.404%
- Cc1ncc(-c2ccnc(NC3CC3)n2)c(-c2cccnc2)n1 | ClpP1P2: 1.833%; PfKRS1: -1.127%; LiHisRS: 2.857%; TcHisRS: 2.26%; Leishmania in macrophages: 13.78% and -0.6496%
- COCC(=O)N1CC(c2ccnc(Nc3cc(C(F)(F)F)ccn3)n2)C1 | ClpP1P2: 12.62%; PfKRS1: -1.083%; MtTrpRS: 14.13%; LiHisRS: 1.418%; TcHisRS: 2.632%; Leishmania in macrophages: 23.24%
- [H][C@@]12CCN(C(=O)C3CCOCC3)C[C@@]1([H])O[C@H](c1ccncn1)C2 | Leishmania in macrophages: 18.43%
- Cc1c(C)n(CC(O)CN2CCOCC2)c2c(Cl)cccc12.Cl (centres unmarked) | Leishmania in macrophages: -3.857%
- CCn1nnc2c1C(COC)CN(C(=O)Cc1cccs1)C2 (centres unmarked) | ClpP1P2: 13.89%; PfKRS1: 6.346%; MtTrpRS: 1.876%; LiHisRS: 11.54%; TcHisRS: 2.674%; Leishmania in macrophages: 6.653%
- CCn1c(SCC(=O)N2CCCC2)nc2cc(C)[nH]c2c1=O | ClpP1P2: 14.96%; PfKRS1: -5.9%; MtTrpRS: -0.7498%; LiHisRS: -7.895%; TcHisRS: -8.537%; Leishmania in macrophages: 15.97% and -10.01%
- [H][C@@]12COC[C@]1(c1nc(C)no1)CN(C(=O)COC1CCCC1)C2 | Leishmania in macrophages: 14.27%

The first 3 entries again:

Compound,ClpP1P2,PfKRS1,MtTrpRS,LiHisRS,TcHisRS,Leishmania in macrophages
CNC(=O)C1(c2cnccn2)CCCN1C(=O)c1ccc(F)cc1 (centres unmarked),12.68,-0.605,-,17.71,11.7,12.6
O=C(N[C@@H]1CN(c2ncccn2)[C@@H]2CCCO[C@@H]21)c1cnccn1,-3.066,0.1424,4.932,18.87,0.5405,-
Cc1nsc(NC2CCN(c3ccccc3OC(F)F)C2=O)n1 (centres unmarked),-5.596,4.818,11,7.563,0,-12.24

From ChEMBL document CHEMBL3988442, “University of Dundee, Small-Polar-MMV Screening Library” (2021).